The text below walks through data of ChEMBL document CHEMBL5032511, “Improving Druggability of Novel Diarylpyrimidine NNRTIs by a Fragment-Based Replacement Strategy: From Biphenyl-DAPYs to Heteroaromatic-Biphenyl-DAPYs” (J Med Chem, 2021).

Protein sequences, listed by entry. Tags and fused reporters are not part of them.
UniProt P33261, whole entry: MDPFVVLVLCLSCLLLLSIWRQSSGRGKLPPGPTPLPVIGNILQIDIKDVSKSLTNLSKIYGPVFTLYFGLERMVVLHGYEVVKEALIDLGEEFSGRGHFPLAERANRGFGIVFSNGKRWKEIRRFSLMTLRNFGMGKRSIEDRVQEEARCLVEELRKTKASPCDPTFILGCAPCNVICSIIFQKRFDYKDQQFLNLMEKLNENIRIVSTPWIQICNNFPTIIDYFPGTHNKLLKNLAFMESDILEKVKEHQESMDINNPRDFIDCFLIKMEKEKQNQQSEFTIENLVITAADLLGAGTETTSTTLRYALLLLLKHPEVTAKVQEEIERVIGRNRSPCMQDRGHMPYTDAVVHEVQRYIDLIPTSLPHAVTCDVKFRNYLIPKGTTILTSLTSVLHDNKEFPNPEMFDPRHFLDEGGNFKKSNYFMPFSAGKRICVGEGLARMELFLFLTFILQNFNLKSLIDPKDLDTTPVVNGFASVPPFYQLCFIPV

One data set can be described thus: physchem. Conditions: buffer, pH 2.
Data set [1] in a line: Aqueous solubility of compound in PBS at pH 7 by HPLC-UV analysis. Conditions: buffer.
A short description of data set [2]: Aqueous solubility of compound in PBS at pH 7.4 by HPLC-UV analysis. Conditions: buffer.
A further data set has as its target Cytochrome P450 2C19 (Homo sapiens, UniProt P33261).

For orientation: solubility means how much of the substance goes into solution per volume. With `CS(=O)(=O)O.N#Cc1ccc(Nc2nccc(Nc3c(F)cc(-c4ccncc4)cc3F)n2)cc1`, the solubility is 170 µg/mL in “physchem”, less than 1 µg/mL in data set [1] and less than 1 µg/mL in data set [2].
With `N#Cc1ccc(Nc2nccc(Nc3c(F)cc(-c4ccncc4)cc3F)n2)cc1.O=S(=O)(O)O`, the solubility was 35.7 µg/mL in “physchem”, less than 1 µg/mL in data set [1] and less than 1 µg/mL in data set [2].
Take `N#Cc1ccc(Nc2nccc(Nc3c(F)cc(-c4ccncc4)cc3F)n2)cc1.O=C(O)C(F)(F)F`: the solubility in the data set “physchem” was 476 µg/mL; in data set [1], less than 1 µg/mL; in data set [2] it was less than 1 µg/mL.
By IC50 is commonly meant the concentration needed to halve the response being measured. Regarding `Cl.N#Cc1ccc(Nc2nccc(Nc3c(F)cc(-c4ccncc4)cc3F)n2)cc1`, the solubility in “physchem” came out at 611 µg/mL; in data set [1] it was 24.9 µg/mL; in data set [2], 24.8 µg/mL. In addition, 22 µM corresponded to half-maximal inhibition against Cytochrome P450 2C19 (IC50).
Take `CC(=O)O.N#Cc1ccc(Nc2nccc(Nc3c(F)cc(-c4ccncc4)cc3F)n2)cc1`: the results for the solubility (in “physchem”; in data set [1]; in data set [2]) were 184 µg/mL, less than 1 µg/mL and less than 1 µg/mL, respectively.
With `N#Cc1ccc(Nc2nccc(Nc3c(F)cc(-c4ccncc4)cc3F)n2)cc1.O=C(O)/C=C\C(=O)O`, the solubility in data set [1] and in data set [2] was less than 1 µg/mL each time.
Consider `Br.N#Cc1ccc(Nc2nccc(Nc3c(F)cc(-c4ccncc4)cc3F)n2)cc1`, for which the solubility in the data set “physchem” turned out to be 577 µg/mL.
